Data published in the supplement of paper PMC12578635.
This is one part of the list. Rule as the data show it: active = 150% or more and inactive = the rest. Single values are uncertain, as repeats are few or missing.

system: Staphylococcus aureus JE2-lux inside RAW 264.7 macrophages; test: intracellular bacterial bioluminescence relative to DMSO vehicle; higher = higher intracellular bacterial metabolic activity; conditions: 10 µM; treatment time 4 h; gentamicin 50 µg/ml

Intracellular bacterial bioluminescence, inactive:
CC1(C)COc2ccc(NC(=O)CCc3ccccc3)cc2NC1=O 109%
COc1cccc(NC(=O)c2cnc(-c3ccc(C)cc3)nc2C)c1 77.9%
Nc1c(-c2nc(-c3ccc(Br)cc3)cs2)c2ccccn2c1C(=O)c1cccs1 84.2%
N#CC1=C(SCC(=O)N(c2ccccc2)c2ccccc2)NC(=O)CC1c1ccco1 (centres undefined) 91.7%
C#CCSc1nc2ccccc2n1C(=O)c1ccc(S(=O)(=O)N2CCOCC2)cc1 97.9%
O=C1c2ccccc2C(=O)c2cc(S(=O)(=O)Nc3ccncc3)ccc21 85.9%
O=C(CCS(=O)(=O)c1ccc(F)cc1)Nc1ncc(S(=O)(=O)c2ccc([N+](=O)[O-])cc2)s1 62.7%
Cc1ccc(C2CC(=O)c3cnc(Nc4ccc(C)cc4C)nc3C2)cc1 (centres undefined) 6.78%
COc1cc(NC(=O)c2cccc3nccnc23)ccc1NC(=O)C1CCCCC1 92.2%
Clc1ccc(-n2cc(-c3ccccc3)c3c(NCCCn4ccnc4)ncnc32)cc1 68.5%
COc1ccccc1OCC(=O)N1c2ccccc2CC1C(N)=O (centres undefined) 104%
CCOC(=O)Cc1csc(NC(=O)CSc2nc(=O)[nH]c3c2CCCC3)n1 88.3%
COc1cccc2sc(Nc3ccccc3)nc12 89%
O=C(c1noc2ccc(S(=O)(=O)N3CCC(Cc4ccccc4)CC3)cc12)N1CCCC1 46.3%
O=C(CSc1nc(O)c2c(n1)CCC2)Nc1cccc2ccccc12 104%
CCNc1nc(C(N)=O)c(NC(=O)c2cc(-c3ccc(OC)cc3)nc3ccccc23)s1 90.2%
N#C/C(=C\Nc1ccc2c(c1)OCO2)c1nc(-c2ccc([N+](=O)[O-])cc2)cs1 79.1%
Cn1c(=O)c(C(=O)NCCc2c[nH]c3ccccc23)cc2cccnc21 125%
COc1cccc(C(=O)CC2(O)C(=O)Nc3c(C)cccc32)c1 (centres undefined) 79.6%
CCn1c(=O)c(N2CCN(C(=O)c3ccc(F)c(Cl)c3)CC2)c(C)n(-c2ccccc2)c1=O 57.2%
COc1cc(/C=N/Nc2ncnc3[nH]cnc23)cc(OC)c1OC 103%
NS(=O)(=O)c1ccc(CCNC(=O)C(=O)Nc2cc3c4c(c2)CC(=O)N4CCC3)cc1 124%
Cc1nc2c(C)cccc2cc1C(=O)Nc1cccc(C(=O)N2CCCCC2)c1 50.5%
C#CCn1/c(=N/C(=O)CCCC)sc2cc(S(N)(=O)=O)ccc21 86.8%
O=C(NCc1cccnc1)c1cnc2n(c1=O)CCS2 108%
COC(=O)Cn1/c(=N/C(=O)c2ccccc2C)sc2cc(S(C)(=O)=O)ccc21 148%
O=C(CSc1ccc([N+](=O)[O-])cc1[N+](=O)[O-])NC1CCS(=O)(=O)C1 (centres undefined) 85.8%
CC(C)c1cc(C(=O)N2CCc3ccccc32)nn1C1CCS(=O)(=O)C1 (centres undefined) 114%
N#C/C(=C\c1c[nH]c2ccc(Br)cc12)C(=O)N1CCOCC1 61%
Cn1c(=O)[nH]c(=O)c2[nH]c(CN(Cc3ccccc3)Cc3ccccc3)nc21 88.3%
COc1ccc(C2C3=C(CC(C)(C)CC3=O)Nc3nc(SC(C)C)[nH]c(=O)c32)cc1 (centres undefined) 116%
O=C(/C=C/c1ccccc1)NN1C(=O)c2ccccc2C1=O 65.6%
O=C(CSc1nnc(-c2ccccc2)c(-c2ccccc2)n1)Nc1nccs1 133%
CCOC(=O)c1[nH]c2ccccc2c1NC(=S)Nc1cccc(Cl)c1C 39.5%
O=C(CC1Nc2ccccc2NC1=O)Nc1cccc(C(=O)O)c1 (centres undefined) 74.6%
O=C(CSc1nc2ccccc2o1)OCC(=O)c1ccc(F)cc1 93.9%
COc1ccc2nc(NC(=O)Cn3c(=O)c4cnc(-c5ccccc5)nc4n(C)c3=O)sc2c1 107%
O=C(CC(C(=O)O)N1CCNCC1)Nc1ccc(Br)cc1 (centres undefined) 106%
C=CCn1c(SCC(=O)Nc2ccc3c(c2)OCCO3)nc2scc(-c3ccco3)c2c1=O 30.2%
CCc1ccc(NC(=O)CS(=O)CC(=O)Nc2ccc(-n3cnnn3)c(C)c2)cc1 (centres undefined) 63.6%
COc1ccc(C(=O)CSc2nc(=O)n(Cc3cccnc3)c3c2CCC3)cc1 73.5%
Cc1c(C)n2c(SCc3ccc(C(F)(F)F)cc3)nnc2[nH]c1=O 107%
O=C(Nc1cccc(I)c1)/C(O)=C1\C(=O)Nc2ccccc21 112%
O=C1C2C3CC(C2C(=O)N1c1ccccc1)C1C(c2ccc(O)cc2)c2sc(=O)[nH]c2SC31 (centres undefined) 74.5%
CCOC(=O)C1CCN(S(=O)(=O)CCNC(=O)c2ccc3c(c2)OCO3)CC1 108%
COc1ccc(NC(=O)C2CCN(C(=O)Nc3cccc(Cl)c3)CC2)cc1OC 84.9%
COc1ccc2[nH]cc(CCNC(=O)c3ccc4nnc(C)n4c3)c2c1 92.3%
Cc1nc(N2CCCC2)ncc1C(=O)NC(c1ccccc1)c1cccnc1 (centres undefined) 114%
CCCn1c(=O)c2cc(F)ccc2n2c(=S)[nH]nc12 111%
CNc1n[nH]c(N)c1-c1nc(-c2ccc(OC)cc2)no1 106%
Cc1ccc2nc(Nc3ccc(Cl)cc3)c(C=O)c(=O)n2c1 133%
COc1ccc(CC(=O)Nc2c3c(nn2-c2ccc(C)cc2)CSC3)cc1OC 110%
CCn1cc(NC(=O)NCCc2ccc(S(N)(=O)=O)cc2)c2ccccc21 130%
CCOC(=O)c1ccc(N2C(=O)C3Sc4[nH]c(=O)sc4C(/C=C/c4ccccc4)C3C2=O)cc1 (centres undefined) 65.7%
Cc1ccc(S(=O)(=O)c2nccn3nc(-c4ccc(Cl)cc4)cc23)cc1 102%
Cc1ccccc1NC(=O)CSc1cc[nH]c(=O)n1 105%
COc1cccc(NC(=O)CCc2c(C)nn(-c3nc(C)c(C)s3)c2O)c1 119%
CC1(C)CC(=O)c2sc(NC(=O)c3cc(-c4cccs4)nc4ccccc34)nc2C1 83.8%
Cc1cc(C)c(S(=O)(=O)Nc2cnc(N3CCNCC3)c(C(=O)NC3CC3)c2)cc1C 92.2%
COc1cc(OC)c(NC(=O)C2CCCN(c3nc(C)nc4oc(C)c(C)c34)C2)cc1Cl (centres undefined) 117%
N#Cc1c(N)nc(SCC(=O)Nc2ccccc2)c(C#N)c1-c1ccccc1 109%
COC(=O)c1ccccc1NS(=O)(=O)c1cccc2cccnc12 117%
CCc1cccc(C)c1NC(=O)CSc1nnc2ccc(C(=O)Nc3cccc(C)c3)cn12 70.4%
COc1ccc(NC(=O)Nc2nc(SCC(=O)C(C)(C)C)ns2)cc1 124%
CCc1cc(-c2csc(S(=O)(=O)N3CC=C(c4ccccc4)CC3)c2)on1 81.3%
Cc1ccc(-c2nc3sc(N4CCN(C(=O)c5cnccn5)CC4)nn3c2NC2CCCC2)cc1 93.9%
COc1ccc(-c2noc(-c3cccnc3N3CCN(c4ccccc4F)CC3)n2)cc1 66.2%
O=C(CC(NCc1ccccn1)C(=O)O)Nc1cccc([N+](=O)[O-])c1 (centres undefined) 99.6%
COc1cc2nc(NC(=O)c3ccco3)sc2cc1OC 112%
Nc1c(-c2nc(-c3ccc4c(c3)OCO4)no2)nnn1-c1cccc(C(F)(F)F)c1 110%
CCOc1ccc2nc(NC(=O)C3CCCN(c4ncnc5sc(CC)cc45)C3)sc2c1 (centres undefined) 61%
Cc1cc2c(cc1C)NC(CC(=O)Nc1ccc(SC(F)F)cc1)C(=O)N2 (centres undefined) 77.3%
c1ccc(Cc2nc3ccccc3c3nnc(SCc4ccccn4)n23)cc1 79.7%
C#CCOc1cccc(C2CC(=O)Nc3c2c(C)nn3-c2nncc(-c3cccc(OC)c3)n2)c1 (centres undefined) 100%
COC(=O)Cn1/c(=N/C(=O)c2ccc(F)cc2)sc2cc(S(N)(=O)=O)ccc21 126%
Cc1ccc(NS(=O)(=O)c2cc(-c3nc(C)cs3)cs2)c(Br)c1 54.8%
COc1ccc(C2CC(=O)n3nc(-c4ccc(Cl)c(Cl)c4)nc3S2)cc1 (centres undefined) 119%
Cc1nn(-c2nc3ccccc3s2)c2nc(C(C)(C)C)cc(C(F)(F)F)c12 105%
O=C(O)c1cccnc1SCC(=O)N1CCN(c2ccccn2)CC1 107%
CCOC(=O)c1s/c(=N\C(=O)CN2C(=O)c3ccccc3C2=O)n(C)c1C 22%
Cc1cccc(N2CCN(CCCNC(=O)c3cc(-c4ccccn4)nc4ccccc34)CC2C)c1 (centres undefined) 35.4%
O=C(c1ccc(F)c(F)c1)N1CCN=C1SCc1cccnc1 107%
Cc1ccc(-c2cc3nc(-c4cccnc4)cc(C(F)(F)F)n3n2)cc1 141%
CC1CCc2[nH]nc(-c3nc(-c4ccc(Cl)cc4)no3)c2C1 (centres undefined) 128%
CCOC(=O)c1cc(C)nc2c1c(=O)n(CC(=O)NCc1ccc(C)cc1)c(=O)n2C 55.4%
O=C(Nc1ccccc1-n1cccc1)c1cccc2nccnc12 75.7%
CCN(CC)CCN1C(=O)C(O)=C(C(=O)c2cc3ccccc3o2)C1c1ccccn1 (centres undefined) 98.7%
Cc1ccc(C)c(S(=O)(=O)Nc2cc3c4c(c2)CCC(=O)N4CCC3)c1 107%
Cc1ccc2c(c1)C(c1ccc(F)cc1)N(C(=O)c1cc3ccccc3oc1=O)CC(=O)N2 (centres undefined) 94.5%

Of the compounds above, these contain a cyano group:
Intracellular bacterial bioluminescence, inactive:
N#CC1=C(SCC(=O)N(c2ccccc2)c2ccccc2)NC(=O)CC1c1ccco1 (centres undefined) 91.7%
N#C/C(=C\Nc1ccc2c(c1)OCO2)c1nc(-c2ccc([N+](=O)[O-])cc2)cs1 79.1%
N#C/C(=C\c1c[nH]c2ccc(Br)cc12)C(=O)N1CCOCC1 61%
N#Cc1c(N)nc(SCC(=O)Nc2ccccc2)c(C#N)c1-c1ccccc1 109%

Reprinted at random: 2 entries already listed, in no set order.
Intracellular bacterial bioluminescence, inactive:
Cc1ccc(S(=O)(=O)c2nccn3nc(-c4ccc(Cl)cc4)cc23)cc1 102%
COc1cc(OC)c(NC(=O)C2CCCN(c3nc(C)nc4oc(C)c(C)c34)C2)cc1Cl (centres undefined) 117%
